Assay results published in PMC5650530 (ACS chemical biology, 2017).

Target: T1, rSGPL1 (Rattus norvegicus, UniProt Q8CHN6)
T1 sequence (Q8CHN6 1-568): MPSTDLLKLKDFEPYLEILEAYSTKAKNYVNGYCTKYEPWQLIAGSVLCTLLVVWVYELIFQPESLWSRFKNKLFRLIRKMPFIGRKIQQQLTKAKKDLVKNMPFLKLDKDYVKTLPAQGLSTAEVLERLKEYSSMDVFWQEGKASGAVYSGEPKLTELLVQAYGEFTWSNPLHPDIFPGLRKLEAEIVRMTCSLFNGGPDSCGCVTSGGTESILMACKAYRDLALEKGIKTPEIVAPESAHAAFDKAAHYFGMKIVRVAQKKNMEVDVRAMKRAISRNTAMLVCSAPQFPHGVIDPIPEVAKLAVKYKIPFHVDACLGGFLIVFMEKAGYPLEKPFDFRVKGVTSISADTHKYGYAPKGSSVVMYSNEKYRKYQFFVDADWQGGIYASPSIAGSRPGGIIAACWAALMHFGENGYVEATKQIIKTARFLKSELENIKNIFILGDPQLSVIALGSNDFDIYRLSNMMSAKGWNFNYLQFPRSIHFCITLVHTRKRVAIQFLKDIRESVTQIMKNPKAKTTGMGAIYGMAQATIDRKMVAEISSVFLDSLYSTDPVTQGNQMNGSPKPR
Assay type: biochemical

Clc1ccc(COC(Cn2ccnc2)c2ccc(Cl)cc2Cl)c(Cl)c1 (stereo not shown) [miconazole]
IC50: 4.3 µM
